Results: PMC7360120
These are yes or no findings as the source states them, for the method shown. Binding seen in cells or lysates may run through a third protein. Some binding calls cover weakened binding; strength is not graded here. For some of these results: Sequences can lack the tags named with a protein.

T1: GST-Rab6A Q72L (UniProt P35279)
T1 sequence: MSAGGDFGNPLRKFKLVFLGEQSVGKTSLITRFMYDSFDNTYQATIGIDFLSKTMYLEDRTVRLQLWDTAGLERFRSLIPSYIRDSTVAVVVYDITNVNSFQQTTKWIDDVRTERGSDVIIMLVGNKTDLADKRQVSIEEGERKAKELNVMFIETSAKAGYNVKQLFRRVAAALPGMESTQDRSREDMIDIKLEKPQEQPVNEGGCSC


Legend:
[1] = molecular target: GST-Rab6B Q72L (UniProt P61294); test: pull-down; GST-Rab proteins (10 μg, active and inactive mutants) on glutathione-Sepharose with 0.5 mL mouse brain lysate (wild type; RIM1 knockout in Figure S3C); 100 mM NaCl, 4 mM EGTA, 25 mM HEPES pH 7.4, 1 mM DTT, 1% Triton X-100, 6 mM Mg2+, 1.5 h at 4°C; western blot; only the target purified
[2] = molecular target: T1, GST-Rab6A Q72L; test: as above

| binding [1] | binding [2] | Binder |
| --- | --- | --- |
| binds | binds | endogenous ELKS1 (protein, UniProt Q99MI1 1-1120) MYGSARSVGKVEPSSQSPGRSPRLPRSPRLGHRRTNSTGGSSGNSVGGGSGKTLSMENIQSLNAAYATSGPMYLSDHENVGAETPKSTMTLGRSGGRLPYGVRMTAMGSSPNIASSGVASDTIAFGEHHLPPVSMASTVPHSLRQARDNTIMDLQTQLKEVLRENDLLRKDVEVKESKLSSSMNSIKTFWSPELKKERALRKDEASKITIWKEQYRVVQEENQHMQMTIQALQDELRIQRDLNQLFQQDSSSRTGEPCVAELTEENFQRLHAEHERQAKELFLLRKTLEEMELRIETQKQTLNARDESIKKLLEMLQSKGLSAKATEEDHERTRRLAEAEMHVHHLESLLEQKEKENNMLREEMHRRFENAPDSAKTKALQTVIEMKDSKISSMERGLRDLEEEIQMLKSNGALSSEEREEEMKQMEVYRSHSKFMKNKVEQLKEELSSKDAQGEELKKRAAGLQSEIGQVKQELSRKDTELLALQTKLETLTNQFSDSKQHIEVLKESLTAKEQRAAILQTEVDALRLRLEEKETMLNKKTKQIQDMAEEKGTQAGEIHDLKDMLDVKERKVNVLQKKIENLQEQLRDKEKQMSSLKERVKSLQADTTNTDTALTTLEEALADKERTIERLKEQRDRDEREKQEEIDTYKKDLKDLREKVSLLQGDLSEKEASLLDIKEHASSLASSGLKKDSRLKTLEIALEQKKEECLKMESQLKKAHEATLEARASPEMSDRIQQLEREISRYKDESSKAQTEVDRLLEILKEVENEKNDKDKKIAELESLTSRQVKDQNKKVANLKHKEQVEKKKSAQMLEEARRREDSLSDSSQQLQDSLRKKDDRIEELEEALRESVQITAEREMVLAQEESARTNAEKQVEELLMAMEKVKQELESMKAKLSSTQQSLAEKETHLTNLRAERRKHLEEVLEMKQEALLAAISEKDANIALLELSSSKKKTQEEVAALKREKDRLVQQLKQQTQNRMKLMADNYEDDHFRSSRSNQTNHKPSPDQIIQPLLELDQNRSKLKLYIGHLTALCHDRDPLILRGLTPPASYNADGEQAAWENELQQMTQEQLQNELEKVEGDNAELQEFANTILQQIADHCPDILEQVVNALEESS |
| binds | binds | endogenous ELKS2 (protein, UniProt Q6PH08 1-957) MYGSARTISNLEGSPSRSPRLPRSPRLGHRRTSSGGGGGTGKTLSMENIQSLNAAYATSGPMYLSDHEGVASTTYPKGTMTLGRATNRAVYGGRVTAMGSSPNIASAGLSHTDVLSYTDQHGGLSGSSHHHHHQVPSMLRQVRDSTMLDLQAQLKELQRENDLLRKELDIKDSKLGSSMNSIKTFWSPELKKERVLRKEEAARMSVLKEQMRVSHEENQHLQLTIQALQDELRTQRDLNHLLQQESGNRGAEHFTIELTEENFRRLQAEHDRQAKELFLLRKTLEEMELRIETQKQTLNARDESIKKLLEMLQSKGLPSKSLEDDNERTRRMAEAESQVSHLEVILDQKEKENIHLREELHRRSQLQPEPAKTKALQTVIEMKDTKIASLERNIRDLEDEVQMLKANGVLNTEDREEEIKQIEVYKSHSKFMKTKIDQLKQELSKKESELLALQTKLETLSNQNSDCKQHIEVLKESLTAKEQRAAILQTEVDALRLRLEEKESFLNKKTKQLQDLTEEKGTLAGEIRDMKDMLEVKERKINVLQKKIENLQEQLRDKDKQLTNLKDRVKSLQTDSSNTDTALATLEEALSEKERIIERLKEQRERDDRERLEEIESFRKENKDLKEKVNALQAELTEKESSLIDLKEHASSLASAGLKRDSKLKSLEIAIEQKKEECNKLEAQLKKAHNIEDDSRMNPEFADRLKQLDKEASYYRDECGKAQAEVDRLLEILKEVENEKNDKDKKIAELESLTLRHMKDQNKKVANLKYNQQLEKKKNAQLLEEVRRREDSMVDNSQHLQIEELMNALEKTRQELDATKARLASTQQSLAEKEAHLANLRIERRKQLEEILEMKQEALLAAISEKDANIALLELSASKKKKTQEEVMALKREKDRLVHQLKQQTQNRMKLMADNYDEDHHHYHHHHHHHHHRSPGRSQHSNHRPSPDQDDEEGIWA |
